Source: PubChem BioAssay AID720505 (Drosophila RNAi Screening Center, 2013)
Aim: 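Knock-downs that reduce calcium influx once internal stores are emptied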 (primary screen). Cells: Drosophila S2R+ cells. Reagents: long dsRNA against Drosophila genes. Treatment: thapsigargin (2 µM) in calcium-free buffer to empty internal stores, then 2 mM calcium added back. Measured: 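Stores emptied by 2 µM thapsigargin without calcium, then 2 mM calcium re-added; fluo-4 fluorescence followed by FLIPR in 384-well plates, per-well averaged endpoint, raw; two screen passes, some wells retested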. Reading the numbers: calcium signal and retest calcium signal: higher = more calcium entry after store depletion. Active means: 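About 1500 genes called as lowering calcium entry, by varying amounts, judged against per-plate control wells with STIM1 as positive and Rho1 as negative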. Calls: active = called as lowering calcium entry; inactive = not called.
In all, the deposit lists about 20,000 reagents; shown is a random part of those with a known target gene and a result. Over the whole deposit, about 2,100 (10%) were called active. 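Raw plate signals without normalisation; calls rest on control-based scores that were not deposited; replicate 2 separates called from uncalled poorly.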 Unmarked entries are inactive. A plus sign joins genes that one reagent is predicted to hit. Not given: the amount of reagent, the time to read-out.

gene,DRSC id,"calcium signal, replicate 1","calcium signal, replicate 2","retest calcium signal, replicate 1","retest calcium signal, replicate 2"
Gba1b,DRSC21531,191,106,,
CG13937,DRSC08406,135,160,,
CG15024,DRSC08478,81.7,67.1,,
CG7744,DRSC07036,162,131,,
Rbcn-3A,DRSC18314,68.8 (active),260,,
CG18327,DRSC06722,107,187,,
RpS5b,DRSC16173,141,180,,
CG14929 + CG14930,DRSC02412,211,237,,
CG14298,DRSC14777,67.9 (active),107,,
CG14864,DRSC14987,135,139,,
alpha-Est5,DRSC12617,98,117,,
PKD,DRSC16200,144,129,,
rha,DRSC17044,59.9 (active),72.4,,
CG4593,DRSC18374,195,91.6,,
CG13474,DRSC10018,83.4,108,,
CG18808,DRSC08539,102,57.6,,
Piezo,DRSC03092,136,256,,
Piezo,DRSC03391,152,148,,
Tm2,DRSC16887,96.8,134,,
CrebB,DRSC20232,96.3,126,,
CG9391,DRSC11858,84.8,163,,
CG32523,DRSC20510,217,89.7,,

Already shown: 3 of the entries above.
gene,DRSC id,"calcium signal, replicate 1","calcium signal, replicate 2","retest calcium signal, replicate 1","retest calcium signal, replicate 2"
PKD,DRSC16200,144,129,,
rha,DRSC17044,59.9 (active),72.4,,
CG4593,DRSC18374,195,91.6,,

Further reagents follow:
gene,DRSC id,"calcium signal, replicate 1","calcium signal, replicate 2","retest calcium signal, replicate 1","retest calcium signal, replicate 2"
Alg13,DRSC14864,189,126,126,85.2
NiPp1,DRSC07307,97.1,80,,
CG13445,DRSC09992,130,194,,
rogdi,DRSC10906,98.8,96.7,,
MFS1,DRSC04115,144,184,,
LamC,DRSC07453,186,123,,
CG15196,DRSC19643,76.2,84.8,,
CG32022,DRSC09678,112,85.7,,
Golgin104,DRSC10459,109,94.7,,
CG12290,DRSC14497,77.4,97.9,,
CG13252,DRSC11700,108,130,,
lolal,DRSC06948,145,102,,
